# Assay results taken from the supplement of paper PMC8426693.
# The other results are listed elsewhere or left out.
# Columns and labels:
# Assay in all cases: NMR binding call after quantification (hit when 2 of 3 NMR criteria are met) (binary (1 = binding, 0 = not binding)); higher = binding
# Conditions in all cases: RNA concentration 10 µM; fragment concentration 200 µM; 293 K
# SARS-CoV-2 5'-UTR RNA = test system: SARS-CoV-2 5'-UTR RNA
# SARS-CoV-2 5_SL1 RNA = test system: SARS-CoV-2 5_SL1 RNA
# SARS-CoV-2 5_SL1234 RNA = test system: SARS-CoV-2 5_SL1234 RNA
# SARS-CoV-2 5_SL2+3 RNA = test system: SARS-CoV-2 5_SL2+3 RNA
# SARS-CoV-2 5_SL4 RNA = test system: SARS-CoV-2 5_SL4 RNA
# SARS-CoV-2 5_SL5 RNA = test system: SARS-CoV-2 5_SL5 RNA
# SARS-CoV-2 5_SL5a RNA = test system: SARS-CoV-2 5_SL5a RNA
# SARS-CoV-2 5_SL5b+c RNA = test system: SARS-CoV-2 5_SL5b+c RNA
# SARS-CoV-2 5_SL5stem RNA = test system: SARS-CoV-2 5_SL5stem RNA
# SARS-CoV-2 5_SL6 RNA = test system: SARS-CoV-2 5_SL6 RNA
Structure (SMILES),NMR binding call (SARS-CoV-2 5'-UTR RNA),NMR binding call (SARS-CoV-2 5_SL1 RNA),NMR binding call (SARS-CoV-2 5_SL1234 RNA),NMR binding call (SARS-CoV-2 5_SL2+3 RNA),NMR binding call (SARS-CoV-2 5_SL4 RNA),NMR binding call (SARS-CoV-2 5_SL5 RNA),NMR binding call (SARS-CoV-2 5_SL5a RNA),NMR binding call (SARS-CoV-2 5_SL5b+c RNA),NMR binding call (SARS-CoV-2 5_SL5stem RNA),NMR binding call (SARS-CoV-2 5_SL6 RNA)
O=C(COc1ccccc1)N1CCCC1,0,0,0,0,0,0,0,0,0,0
CC(=O)NCC1(c2ccccc2)CCOCC1,0,0,0,0,0,0,0,0,0,0
Cc1cccc(C(=O)N2CCC(C(N)=O)CC2)c1,0,0,0,0,0,0,0,0,0,0
O=C(CN1CCCC1)Nc1ccc(F)cc1,0,0,0,0,0,0,0,0,0,0
COC(=O)COc1ccc(C#N)cc1,0,0,0,0,0,0,0,0,0,0
CC(=O)Nc1ccc(CC(N)=O)cc1,0,0,0,0,0,0,0,0,0,0
Cc1cccc(NC(=O)C2CCCN2)n1 (stereo unspecified),0,0,0,0,0,0,0,0,0,0
COc1cccc2c1CCCC(=O)N2,0,0,0,0,0,0,0,0,0,0
Nc1cc(C(F)(F)F)ccc1N1CCCCC1,0,0,0,0,0,0,0,0,0,0
CC1CCOC1C(=O)Nc1cnns1 (stereo unspecified),0,0,0,0,0,0,0,0,0,0
CC(NC1CC1)c1cccnc1 (stereo unspecified),0,0,0,0,0,0,0,0,0,0
CCNC(=O)c1c[nH]nn1,0,0,0,0,0,0,0,0,0,0
CC1CN(C(=O)c2cnccn2)CCO1 (stereo unspecified),0,0,0,0,0,0,0,0,0,0
N#CCC(=O)N1CCC(Cc2ccccc2)CC1,0,0,0,0,0,0,0,0,0,0
CC(C)C(N)C(=O)N1CCOCC1 (stereo unspecified),0,0,0,0,0,0,0,0,0,0
CN(C)c1ccc(C(=O)Nc2ccncc2)cc1,0,0,1,,1,0,0,1,0,
CC(N)c1ccc(-c2cncnc2)cc1 (stereo unspecified),1,0,,0,,,,,,

# Full records from above. Order of values: NMR binding call (SARS-CoV-2 5'-UTR RNA)	NMR binding call (SARS-CoV-2 5_SL1 RNA)	NMR binding call (SARS-CoV-2 5_SL1234 RNA)	NMR binding call (SARS-CoV-2 5_SL2+3 RNA)	NMR binding call (SARS-CoV-2 5_SL4 RNA)	NMR binding call (SARS-CoV-2 5_SL5 RNA)	NMR binding call (SARS-CoV-2 5_SL5a RNA)	NMR binding call (SARS-CoV-2 5_SL5b+c RNA)	NMR binding call (SARS-CoV-2 5_SL5stem RNA)	NMR binding call (SARS-CoV-2 5_SL6 RNA)
# Cc1cccc(C(=O)N2CCC(C(N)=O)CC2)c1 as listed: 0	0	0	0	0	0	0	0	0	0
# CC1CN(C(=O)c2cnccn2)CCO1 (stereo unspecified) as listed: 0	0	0	0	0	0	0	0	0	0
